This note sets out measurements from the supplement of paper PMC10849652.

Chains of the proteins cited; added tags and fusions are not shown. Lines headed by an entry give the natural chain unless they say otherwise; changes in a name come on top.
UniProt Q6KCM7: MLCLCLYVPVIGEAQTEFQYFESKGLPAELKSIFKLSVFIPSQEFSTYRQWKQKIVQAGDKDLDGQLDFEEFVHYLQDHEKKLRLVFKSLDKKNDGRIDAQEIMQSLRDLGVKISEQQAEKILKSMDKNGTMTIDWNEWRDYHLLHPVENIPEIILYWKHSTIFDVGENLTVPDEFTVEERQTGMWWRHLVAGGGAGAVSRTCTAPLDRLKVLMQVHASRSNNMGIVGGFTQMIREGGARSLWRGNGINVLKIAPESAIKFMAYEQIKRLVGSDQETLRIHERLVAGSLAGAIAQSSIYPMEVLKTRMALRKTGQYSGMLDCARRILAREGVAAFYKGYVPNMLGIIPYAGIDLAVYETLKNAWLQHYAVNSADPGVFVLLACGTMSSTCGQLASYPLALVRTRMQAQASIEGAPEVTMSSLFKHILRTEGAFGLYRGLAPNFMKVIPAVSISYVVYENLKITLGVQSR
UniProt Q9H2H9: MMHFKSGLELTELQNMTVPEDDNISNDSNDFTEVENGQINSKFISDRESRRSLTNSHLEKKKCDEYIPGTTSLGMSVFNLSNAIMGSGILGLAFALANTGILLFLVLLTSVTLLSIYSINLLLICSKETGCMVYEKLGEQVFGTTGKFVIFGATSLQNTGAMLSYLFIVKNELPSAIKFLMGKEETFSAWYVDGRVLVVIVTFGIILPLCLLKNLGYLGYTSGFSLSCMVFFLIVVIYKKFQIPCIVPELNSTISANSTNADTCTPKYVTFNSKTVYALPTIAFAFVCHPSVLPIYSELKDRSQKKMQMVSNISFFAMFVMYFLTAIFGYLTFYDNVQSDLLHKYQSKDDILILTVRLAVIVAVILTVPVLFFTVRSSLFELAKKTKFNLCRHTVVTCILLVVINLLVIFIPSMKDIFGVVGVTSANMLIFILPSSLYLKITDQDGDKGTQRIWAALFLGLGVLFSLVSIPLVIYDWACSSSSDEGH
UniProt O43772: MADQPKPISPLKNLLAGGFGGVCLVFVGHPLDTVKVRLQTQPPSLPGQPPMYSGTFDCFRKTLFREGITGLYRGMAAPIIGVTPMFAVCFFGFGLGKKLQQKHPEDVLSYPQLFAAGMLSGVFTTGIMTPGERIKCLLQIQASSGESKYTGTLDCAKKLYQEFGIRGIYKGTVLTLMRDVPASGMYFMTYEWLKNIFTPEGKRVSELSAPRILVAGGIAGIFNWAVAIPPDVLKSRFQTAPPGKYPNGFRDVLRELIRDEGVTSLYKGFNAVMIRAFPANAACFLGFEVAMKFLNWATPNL
UniProt O00400: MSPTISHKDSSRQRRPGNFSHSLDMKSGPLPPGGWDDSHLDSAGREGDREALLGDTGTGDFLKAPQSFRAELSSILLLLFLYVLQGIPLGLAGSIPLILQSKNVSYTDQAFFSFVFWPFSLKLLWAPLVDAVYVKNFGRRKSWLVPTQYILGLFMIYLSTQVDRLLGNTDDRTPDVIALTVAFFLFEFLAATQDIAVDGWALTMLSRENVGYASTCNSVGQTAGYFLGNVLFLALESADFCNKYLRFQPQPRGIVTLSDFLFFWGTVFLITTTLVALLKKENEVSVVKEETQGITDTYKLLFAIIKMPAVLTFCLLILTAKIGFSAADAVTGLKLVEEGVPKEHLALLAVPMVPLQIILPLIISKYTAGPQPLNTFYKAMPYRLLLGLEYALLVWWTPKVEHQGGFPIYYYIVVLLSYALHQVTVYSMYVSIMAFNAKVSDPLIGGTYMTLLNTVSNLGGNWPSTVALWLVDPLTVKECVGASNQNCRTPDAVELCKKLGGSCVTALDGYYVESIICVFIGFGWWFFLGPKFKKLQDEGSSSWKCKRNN
UniProt Q9BRY0: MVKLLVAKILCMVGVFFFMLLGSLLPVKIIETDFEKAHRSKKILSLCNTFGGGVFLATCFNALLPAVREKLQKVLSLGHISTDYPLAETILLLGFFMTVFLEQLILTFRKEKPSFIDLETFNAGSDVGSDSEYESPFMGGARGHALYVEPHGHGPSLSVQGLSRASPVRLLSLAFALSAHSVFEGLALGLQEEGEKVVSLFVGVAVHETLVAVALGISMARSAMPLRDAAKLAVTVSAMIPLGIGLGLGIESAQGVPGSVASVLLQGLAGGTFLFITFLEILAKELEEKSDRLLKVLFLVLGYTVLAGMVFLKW
UniProt P12236: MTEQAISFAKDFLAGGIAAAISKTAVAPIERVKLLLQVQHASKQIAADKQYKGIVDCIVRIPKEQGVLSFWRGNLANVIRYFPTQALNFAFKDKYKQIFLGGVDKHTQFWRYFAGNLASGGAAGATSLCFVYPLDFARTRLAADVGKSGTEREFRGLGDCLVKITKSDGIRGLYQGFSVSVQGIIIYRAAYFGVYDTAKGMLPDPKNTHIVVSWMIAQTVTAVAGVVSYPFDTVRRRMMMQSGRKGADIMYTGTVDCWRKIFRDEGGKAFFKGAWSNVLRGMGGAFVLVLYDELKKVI
UniProt Q9Y619: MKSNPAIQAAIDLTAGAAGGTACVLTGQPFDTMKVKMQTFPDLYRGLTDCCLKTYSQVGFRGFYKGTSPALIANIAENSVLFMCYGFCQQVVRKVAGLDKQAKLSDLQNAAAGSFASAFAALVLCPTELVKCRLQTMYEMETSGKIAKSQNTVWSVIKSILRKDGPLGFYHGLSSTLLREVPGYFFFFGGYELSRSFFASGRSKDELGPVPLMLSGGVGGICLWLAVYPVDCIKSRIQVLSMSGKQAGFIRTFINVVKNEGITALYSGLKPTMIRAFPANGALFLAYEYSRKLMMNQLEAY
UniProt Q9NYZ2: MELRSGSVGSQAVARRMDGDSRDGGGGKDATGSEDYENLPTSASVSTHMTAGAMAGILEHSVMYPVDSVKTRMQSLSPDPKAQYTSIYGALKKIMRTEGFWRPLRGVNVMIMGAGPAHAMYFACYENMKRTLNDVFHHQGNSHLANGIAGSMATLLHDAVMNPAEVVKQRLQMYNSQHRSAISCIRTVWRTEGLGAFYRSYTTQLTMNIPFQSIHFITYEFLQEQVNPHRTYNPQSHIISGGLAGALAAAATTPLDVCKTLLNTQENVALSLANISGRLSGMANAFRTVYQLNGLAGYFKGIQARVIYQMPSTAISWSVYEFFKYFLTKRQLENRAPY
UniProt P19634, whole entry, looked up: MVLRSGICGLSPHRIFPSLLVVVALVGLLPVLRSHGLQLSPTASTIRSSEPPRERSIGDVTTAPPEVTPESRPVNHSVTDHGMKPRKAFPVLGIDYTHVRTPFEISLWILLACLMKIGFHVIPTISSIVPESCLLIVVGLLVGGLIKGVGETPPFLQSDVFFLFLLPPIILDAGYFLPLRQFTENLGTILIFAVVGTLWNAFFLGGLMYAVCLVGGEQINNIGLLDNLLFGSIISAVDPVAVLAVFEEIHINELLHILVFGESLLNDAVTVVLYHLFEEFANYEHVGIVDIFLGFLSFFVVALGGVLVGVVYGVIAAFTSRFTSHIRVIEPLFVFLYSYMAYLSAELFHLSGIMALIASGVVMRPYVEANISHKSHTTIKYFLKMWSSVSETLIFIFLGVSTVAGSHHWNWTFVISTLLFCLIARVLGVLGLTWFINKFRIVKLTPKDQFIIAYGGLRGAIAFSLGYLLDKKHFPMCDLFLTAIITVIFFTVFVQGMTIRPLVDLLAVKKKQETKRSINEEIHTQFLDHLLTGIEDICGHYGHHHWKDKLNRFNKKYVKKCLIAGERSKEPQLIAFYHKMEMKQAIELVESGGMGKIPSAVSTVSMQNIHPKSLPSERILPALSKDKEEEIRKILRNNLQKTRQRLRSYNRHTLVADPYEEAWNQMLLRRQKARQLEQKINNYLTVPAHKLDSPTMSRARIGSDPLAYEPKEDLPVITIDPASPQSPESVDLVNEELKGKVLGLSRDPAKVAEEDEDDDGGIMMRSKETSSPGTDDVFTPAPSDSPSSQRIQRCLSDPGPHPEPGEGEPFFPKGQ
UniProt L0R6Q1: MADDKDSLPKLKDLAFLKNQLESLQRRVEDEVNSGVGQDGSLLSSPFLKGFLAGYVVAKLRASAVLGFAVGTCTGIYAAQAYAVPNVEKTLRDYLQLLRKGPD
UniProt P12235: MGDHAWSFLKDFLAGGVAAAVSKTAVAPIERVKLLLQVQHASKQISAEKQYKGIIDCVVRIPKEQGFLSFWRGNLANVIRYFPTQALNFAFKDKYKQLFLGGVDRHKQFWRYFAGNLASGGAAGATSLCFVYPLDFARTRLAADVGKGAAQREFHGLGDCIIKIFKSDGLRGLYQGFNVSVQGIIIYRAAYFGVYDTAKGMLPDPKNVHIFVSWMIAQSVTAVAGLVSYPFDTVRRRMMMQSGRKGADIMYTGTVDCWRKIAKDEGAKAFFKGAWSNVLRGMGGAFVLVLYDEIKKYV
UniProt Q02978: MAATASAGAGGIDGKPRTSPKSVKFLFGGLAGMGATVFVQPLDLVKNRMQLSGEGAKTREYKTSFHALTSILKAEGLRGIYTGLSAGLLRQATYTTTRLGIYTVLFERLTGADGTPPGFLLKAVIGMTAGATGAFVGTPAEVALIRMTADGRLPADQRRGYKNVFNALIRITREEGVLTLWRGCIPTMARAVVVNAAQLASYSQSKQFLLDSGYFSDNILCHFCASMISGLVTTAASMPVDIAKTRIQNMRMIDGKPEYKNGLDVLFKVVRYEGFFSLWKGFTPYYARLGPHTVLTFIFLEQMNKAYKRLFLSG
UniProt Q99808: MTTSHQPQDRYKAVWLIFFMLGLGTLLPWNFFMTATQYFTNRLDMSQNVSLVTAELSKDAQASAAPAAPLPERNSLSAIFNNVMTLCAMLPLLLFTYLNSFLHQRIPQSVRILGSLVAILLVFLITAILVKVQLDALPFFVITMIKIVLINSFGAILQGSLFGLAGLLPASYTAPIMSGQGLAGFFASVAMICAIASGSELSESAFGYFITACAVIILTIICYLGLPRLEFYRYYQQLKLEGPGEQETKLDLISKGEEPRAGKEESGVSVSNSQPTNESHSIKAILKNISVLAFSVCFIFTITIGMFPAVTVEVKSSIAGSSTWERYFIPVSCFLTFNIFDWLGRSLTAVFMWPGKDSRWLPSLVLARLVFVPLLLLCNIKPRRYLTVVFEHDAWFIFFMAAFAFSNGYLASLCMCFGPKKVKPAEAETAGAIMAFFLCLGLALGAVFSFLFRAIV
UniProt Q8IYB5: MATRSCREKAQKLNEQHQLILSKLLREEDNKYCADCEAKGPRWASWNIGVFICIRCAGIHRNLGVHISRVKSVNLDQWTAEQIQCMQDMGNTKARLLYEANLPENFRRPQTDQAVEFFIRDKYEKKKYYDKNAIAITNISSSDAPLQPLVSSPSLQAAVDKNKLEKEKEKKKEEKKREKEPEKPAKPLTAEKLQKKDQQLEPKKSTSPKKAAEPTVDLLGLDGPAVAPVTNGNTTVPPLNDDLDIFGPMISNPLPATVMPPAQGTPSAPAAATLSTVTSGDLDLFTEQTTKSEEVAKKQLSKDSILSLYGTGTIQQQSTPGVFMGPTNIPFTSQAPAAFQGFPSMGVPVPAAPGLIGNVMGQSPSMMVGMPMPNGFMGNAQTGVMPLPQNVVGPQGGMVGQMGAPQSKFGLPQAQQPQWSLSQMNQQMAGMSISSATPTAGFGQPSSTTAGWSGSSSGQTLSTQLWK
UniProt Q70HW3: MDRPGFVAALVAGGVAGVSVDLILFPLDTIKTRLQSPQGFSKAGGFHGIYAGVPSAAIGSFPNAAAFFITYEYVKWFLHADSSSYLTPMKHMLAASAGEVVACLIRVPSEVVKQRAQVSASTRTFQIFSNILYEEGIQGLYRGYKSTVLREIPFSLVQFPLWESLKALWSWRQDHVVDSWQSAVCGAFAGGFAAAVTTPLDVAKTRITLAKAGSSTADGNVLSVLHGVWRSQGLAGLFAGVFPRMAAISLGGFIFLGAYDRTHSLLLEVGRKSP
UniProt P48029: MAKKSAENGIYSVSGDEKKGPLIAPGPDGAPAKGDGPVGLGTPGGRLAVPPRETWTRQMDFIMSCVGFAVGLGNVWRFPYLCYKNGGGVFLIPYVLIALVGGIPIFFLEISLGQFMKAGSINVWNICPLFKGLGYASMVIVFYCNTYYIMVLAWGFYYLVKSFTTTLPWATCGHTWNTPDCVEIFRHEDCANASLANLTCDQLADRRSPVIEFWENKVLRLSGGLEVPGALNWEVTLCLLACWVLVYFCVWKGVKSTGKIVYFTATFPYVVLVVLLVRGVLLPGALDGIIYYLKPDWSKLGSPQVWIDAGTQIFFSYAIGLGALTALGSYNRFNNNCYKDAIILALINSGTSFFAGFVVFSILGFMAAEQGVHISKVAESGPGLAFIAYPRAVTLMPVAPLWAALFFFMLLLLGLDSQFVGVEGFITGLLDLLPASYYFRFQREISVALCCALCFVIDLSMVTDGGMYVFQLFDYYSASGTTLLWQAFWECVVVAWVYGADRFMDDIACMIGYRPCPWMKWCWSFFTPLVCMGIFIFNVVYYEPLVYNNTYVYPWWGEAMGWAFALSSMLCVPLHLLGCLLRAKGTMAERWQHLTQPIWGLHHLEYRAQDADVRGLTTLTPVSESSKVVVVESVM

The other results are listed elsewhere or left out.

Compound in one assay: CN1CCN(CCOc2cc(OC3CCOCC3)c3c(Nc4c(Cl)ccc5c4OCO5)ncnc3c2)CC1 [saracatinib]
As to the kind of experiment: log2 fold change, soluble protein after heating vs DMSO (PISA); higher = thermal stabilisation; K562 lysate, 10 uM; active = over 0.2 and 3.5 SD of the protein, either way, in both replicates (recomputed). The gist of the method:
(§1)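 Soluble protein was defined as the supernatant remaining after 21,000xg for 90 min, following pooling of heated aliquots and adjustment to 0.5% NP-40 at 4°C. Before that, crude K562 extract at 1 mg/mL protein in PBS pH 7.4 with 1 mM MgCl2 was treated with 10 μM compound for 30 min and heated for 3 min across 48°C-58°C. Quantification used TMTpro 16plex LC-MS/MS with channel sums equalised, and values are log-two fold changes in thermal stability relative to solvent controls from duplicates.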
With SLC9A6 isoform 2 (UniProt Q92581), the log2 fold change was inactive: 0.017.
Same read-out and setting: the result for SLC25A25 isoform 3 (UniProt Q6KCM7) reads inactive: 0.016.
Still for that read-out and setting: next, SLC38A1 (UniProt Q9H2H9): inactive: -0.002.
Same read-out and setting: next, SLC25A31 (UniProt Q9H0C2): inactive: -0.031; SLC25A14 isoform 3 (UniProt O95258): inactive: -0.026; SLC38A2 (UniProt Q96QD8): inactive: -0.056.
Take SLC7A1 (UniProt P30825): the log2 fold change was inactive: 0.022.
On the same count and under the same terms, next, SLC25A20 (UniProt O43772): inactive: -0.038; SLC33A1 (UniProt O00400): inactive: 0.
On to SMAP2 (UniProt Q8WU79), for which the log2 fold change is inactive: 0.044.
The same measure, in the same setting: next, SLC30A10 (UniProt Q6XR72): inactive: -0.043; SLC35F6 (UniProt Q8N357): inactive: -0.008; SLC39A3 (UniProt Q9BRY0): inactive: 0.031.
On to SLC35B2 (UniProt Q8TB61), for which the log2 fold change is inactive: -0.012.
Still for that read-out and setting: next, SLC25A51 (UniProt Q9H1U9): inactive: -0.04.
Still for that read-out and setting: next, SLC25A6 (UniProt P12236): inactive: 0.006; SLC25A15 (UniProt Q9Y619): inactive: -0.01; SLC25A37 (UniProt Q9NYZ2): inactive: 0.008.
Same read-out and setting: next, SLC9A1 (UniProt P19634): inactive: 0.011; SLC35A4 (UniProt L0R6Q1): inactive: -0.012.
Regarding SLC25A38 (UniProt Q96DW6), the log2 fold change is inactive: -0.127.
Same read-out and setting: the result for SLC25A46 (UniProt Q96AG3) reads inactive: -0.032.
Still for that read-out and setting: next, SLC39A14 (UniProt Q15043): inactive: 0.027; SLK isoform 2 (UniProt Q9H2G2): inactive: 0.142.
Same read-out and setting: the result for SLC43A1 (UniProt O75387) reads inactive: -0.084.
For the target SLC25A22 (UniProt Q9H936), the log2 fold change is inactive: 0.012.
Regarding SLC25A4 (UniProt P12235), the log2 fold change is inactive: -0.021.
For the target SLC26A6 (UniProt Q9BXS9), the log2 fold change is inactive: -0.126.
For the target SLC25A11 (UniProt Q02978), the log2 fold change was inactive: -0.004.
Same read-out and setting: the result for SLC25A42 (UniProt Q86VD7) reads inactive: -0.12; that for SLC27A2 (UniProt O14975), inactive: -0.021; that for SLC29A1 isoform 2 (UniProt Q99808), inactive: 0.102.
In the case of SMAP1 isoform 2 (UniProt Q8IYB5), the log2 fold change was inactive: 0.029.
Still for that read-out and setting: next, SLC7A2 isoform 3 (UniProt P52569): inactive: 0.022; SLC25A26 (UniProt Q70HW3): inactive: 0.026.
As to SLC30A7 (UniProt Q8NEW0), the log2 fold change was inactive: 0.018.
On the same count and under the same terms, next, SLC25A21 (UniProt Q9BQT8): inactive: -0.017.
Same read-out and setting: the result for SLC44A2 (UniProt Q8IWA5) reads inactive: 0.035.
In the case of SLC6A8 isoform 2 (UniProt P48029), the log2 fold change was inactive: 0.116.

Compound in a further assay: CN1CCN(c2nc(C3=C(c4c[nH]c5ccccc45)C(=O)NC3=O)c3ccccc3n2)CC1 [sotrastaurin]
The assay is described as above. The gist of the method:
as §1
For the target SLC9A6 isoform 2 (UniProt Q92581), the log2 fold change was inactive: 0.03.
With SLC25A25 isoform 3 (UniProt Q6KCM7), the log2 fold change was inactive: -0.016.
Still for that read-out and setting: next, SLC38A1 (UniProt Q9H2H9): inactive: 0.024; SLC25A31 (UniProt Q9H0C2): inactive: -0.017.
The same measure, in the same setting: the result for SLC25A14 isoform 3 (UniProt O95258) reads inactive: 0.019; that for SLC38A2 (UniProt Q96QD8), inactive: 0.027; that for SLC7A1 (UniProt P30825), inactive: 0.044.
As to SLC25A20 (UniProt O43772), the log2 fold change was inactive: 0.003.
On the same count and under the same terms, next, SLC33A1 (UniProt O00400): inactive: 0.003; SMAP2 (UniProt Q8WU79): inactive: -0.027; SLC30A10 (UniProt Q6XR72): inactive: 0.006.
The same measure, in the same setting: next, SLC35F6 (UniProt Q8N357): inactive: 0.158; SLC39A3 (UniProt Q9BRY0): inactive: -0.03.
Take SLC35B2 (UniProt Q8TB61): the log2 fold change was inactive: -0.03.
On to SLC25A51 (UniProt Q9H1U9), for which the log2 fold change is inactive: 0.01.
The same measure, in the same setting: next, SLC25A6 (UniProt P12236): inactive: 0.022.
On the same count and under the same terms, the result for SLC25A15 (UniProt Q9Y619) reads inactive: 0.027; that for SLC25A37 (UniProt Q9NYZ2), inactive: 0.013; that for SLC9A1 (UniProt P19634), inactive: -0.031.
Same read-out and setting: the result for SLC35A4 (UniProt L0R6Q1) reads inactive: -0.003; that for SLC25A38 (UniProt Q96DW6), inactive: 0.07; that for SLC25A46 (UniProt Q96AG3), inactive: 0.08.
In the case of SLC39A14 (UniProt Q15043), the log2 fold change was inactive: 0.053.
Still for that read-out and setting: the result for SLK isoform 2 (UniProt Q9H2G2) reads inactive: 0.051; that for SLC43A1 (UniProt O75387), inactive: 0.016.
Same read-out and setting: the result for SLC25A22 (UniProt Q9H936) reads inactive: -0.016; that for SLC25A4 (UniProt P12235), inactive: -0.018.
Same read-out and setting: the result for SLC26A6 (UniProt Q9BXS9) reads inactive: 0.005.
Turning to SLC25A11 (UniProt Q02978), the log2 fold change was inactive: -0.006.
The same measure, in the same setting: next, SLC25A42 (UniProt Q86VD7): inactive: -0.019.
As for SLC27A2 (UniProt O14975), the log2 fold change is inactive: 0.159.
Turning to SLC29A1 isoform 2 (UniProt Q99808), the log2 fold change was inactive: 0.003.
On the same count and under the same terms, the result for SMAP1 isoform 2 (UniProt Q8IYB5) reads inactive: -0.078.
Still for that read-out and setting: next, SLC7A2 isoform 3 (UniProt P52569): inactive: 0.037.
For the target SLC25A26 (UniProt Q70HW3), the log2 fold change is inactive: 0.144.
With SLC30A7 (UniProt Q8NEW0), the log2 fold change is inactive: -0.065.
For SLC25A21 (UniProt Q9BQT8), the log2 fold change was inactive: 0.015.
Still for that read-out and setting: next, SLC44A2 (UniProt Q8IWA5): inactive: 0.064.
The same measure, in the same setting: the result for SLC6A8 isoform 2 (UniProt P48029) reads inactive: -0.082.
